Some entries share one result that the patent states for a list of compounds.
Legend:
[1] = test system: USP2, USP10, USP16, USP21, USP22, USP25, USP28, USP35, USP46; test: DUB biochemical IC50 assays, nine DUBs; settings: lowest of USP2, USP10, USP16, USP21, USP22, USP25, USP28, USP35, USP46
Cathepsins B, K, L, S, V = test: Cathepsin IC50, range over B, K, L, S, V; format: biochemical; settings: lowest of cathepsins B, S and V
UCHL1 = biological target: T1, UCHL1 (Homo sapiens, UniProt P09936); test: DUB biochemical IC50 assay, UCHL1; settings: for fold more selective for USP30 over UCHL1 than E, F and G: v Reference Examples E, minimum
T1 sequence (P09936 1-223): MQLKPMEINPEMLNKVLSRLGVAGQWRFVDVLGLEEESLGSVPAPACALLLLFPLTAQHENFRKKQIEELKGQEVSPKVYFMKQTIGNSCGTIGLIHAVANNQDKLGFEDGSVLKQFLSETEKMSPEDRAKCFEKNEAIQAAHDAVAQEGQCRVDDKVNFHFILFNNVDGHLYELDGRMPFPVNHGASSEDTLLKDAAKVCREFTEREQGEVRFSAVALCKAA

| Compound | fold more potent against USP30 than against the nine DUBs, minimum [1] | fold more potent against USP30 than against the cathepsins, minimum (Cathepsins B, K, L, S, V) | fold more potent against USP30 than UCHL1 (UCHL1) | fold more selective for USP30 over UCHL1 than E, F and G (UCHL1) |
| --- | --- | --- | --- | --- |
| C[C@@H]1C[C@@H](NC(=O)c2nnc(-c3cccc(C#N)c3)o2)CN1C#N [Example 1, N-((3R,5R)-1-Cyano-5-methylpyrrolidin-3-yl)-5-(3-cyanophenyl)-1,3,4-oxadiazole-2-carboxamide] | ≥ 186 fold | ≥ 720 fold | at least 8100 fold | ≥ 1700 fold |
| COC[C@@H]1C[C@@H](NC(=O)c2nnc(-c3cccc(C#N)c3)o2)CN1C#N [Example 2, N-((3R,5S)-1-Cyano-5-(methoxymethyl)pyrrolidin-3-yl)-5-(3-cyanophenyl)-1,3,4-oxadiazole-2-carboxamide] | ≥ 186 fold | ≥ 720 fold | at least 8100 fold | ≥ 1700 fold |
| N#Cc1cccc(-c2nnc(C(=O)N[C@@H]3C[C@@H](CF)N(C#N)C3)o2)c1 [Example 3, N-((3R,5S)-1-Cyano-5-(fluoromethyl)pyrrolidin-3-yl)-5-(3-cyanophenyl)-1,3,4-oxadiazole-2-carboxamide] | ≥ 186 fold | ≥ 720 fold | at least 8100 fold | ≥ 1700 fold |
| COC[C@@H]1C[C@@H](NC(=O)c2nnc(-c3cc(C#N)ccc3OC)o2)CN1C#N [Example 4, 5-(5-Cyano-2-methoxyphenyl)-N-((3R,5S)-1-cyano-5-(methoxymethyl)pyrrolidine-3-yl)-1,3,4-oxadiazole-2-carboxamide] | ≥ 186 fold | ≥ 720 fold | at least 8100 fold | ≥ 1700 fold |
| COc1ccc(C#N)cc1-c1nnc(C(=O)N[C@@H]2C[C@@H](C)N(C#N)C2)o1 [Example 5, 5-(5-Cyano-2-methoxyphenyl)-N-((3R,5R)-1-cyano-5-methylpyrrolidin-3-yl)-1,3,4-oxadiazole-2-carboxamide] | ≥ 186 fold | ≥ 720 fold | at least 8100 fold | ≥ 1700 fold |
